Laboratory results: PubChem BioAssay AID504786 (Drosophila RNAi Screening Center, 2011)
In all, the deposit lists about 21,000 reagents; this is an unselected part of those that have a named target and a result. 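Primary screen; positive scores mean lost reporter signal, so the sign may be inverted from the usual convention.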 Reagents against one gene are numbered here. No sequences are given here.

Screen: 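Fly genes required for HIF-dependent transcription when hypoxia is mimicked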 (primary screen)
System: Drosophila S2 cells with a stable HIF luciferase reporter
Reagents: long dsRNA against Drosophila genes, about 0.2 µg dsRNA per well of a 384-well plate
Timing: three days of knock-down, then 20 h of DFO before reading
Challenge: desferrioxamine (DFO) at 100 µM, an iron chelator that mimics hypoxia, for 20 h
Detection: 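HIF reporter luminescence in cells given 100 µM DFO for 20 h, using the mouse ldh-a hypoxia-response element, scored as per-plate z-scores; higher means greater loss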
Direction: z-score: higher = stronger loss of HIF reporter signal

CG13557 showed z-score, replicate 1 = -0.3; z-score, replicate 2 = -0.5.
With knock-down of dpr3 #1 the results were z-score, replicate 1 = -0.1; z-score, replicate 2 = 0.1.
Silencing of dpr3 #2 resulted in: z-score, replicate 1 = 0; z-score, replicate 2 = 0.7.
After knock-down of Ugt37B1 the results were z-score, replicate 1 = -0.3; z-score, replicate 2 = -0.4.
Against Fas2 #1, the entry reads z-score, replicate 1 = 1.9; z-score, replicate 2 = 2.9.
After knock-down of Fas2 #2, the record shows z-score, replicate 1 = -0.1; z-score, replicate 2 = -0.1.
Knock-down of Fas2 #3 resulted in: z-score, replicate 1 = 0; z-score, replicate 2 = -0.5.
CtsK1 showed z-score, replicate 1 = 0.1; z-score, replicate 2 = 0.
With knock-down of CG32053 the results were z-score, replicate 1 = 0; z-score, replicate 2 = 0.
Depletion of Cftr gave: z-score, replicate 1 = -0.3; z-score, replicate 2 = 0.2.
With knock-down of CG12268, the screen gave z-score, replicate 1 = -0.1; z-score, replicate 2 = 0.
For CG8519, the values are z-score, replicate 1 = -0.3; z-score, replicate 2 = -0.2.
For CG17294, the values are z-score, replicate 1 = -0.1; z-score, replicate 2 = 0.
With knock-down of CG1690 the results were z-score, replicate 1 = 0.1; z-score, replicate 2 = 0.1.
CG14739 gave z-score, replicate 1 = -0.2; z-score, replicate 2 = 0.
Silencing of Ir10a #1 came out at: z-score, replicate 1 = -0.5; z-score, replicate 2 = -0.2.
For Ir10a #2, the values are z-score, replicate 1 = -0.1; z-score, replicate 2 = -0.1.
After knock-down of Ir10a #3 the results were z-score, replicate 1 = -0.1; z-score, replicate 2 = -0.5.
pico showed z-score, replicate 1 = -0.3; z-score, replicate 2 = -0.4.
Knock-down of CG30287 gave: z-score, replicate 1 = -0.2; z-score, replicate 2 = 0.
With knock-down of Gyc89Db, the record shows z-score, replicate 1 = -0.1; z-score, replicate 2 = 0.1.
CR42548 scored z-score, replicate 1 = -0.5; z-score, replicate 2 = -0.2.
For CG10660 the deposit lists z-score, replicate 1 = 8.6; z-score, replicate 2 = 7.3.
Root scored z-score, replicate 1 = -0.4; z-score, replicate 2 = -0.3.
Depletion of CG17636 resulted in: z-score, replicate 1 = -0.1; z-score, replicate 2 = -0.4.
With knock-down of CG8003, the screen gave z-score, replicate 1 = -0.3; z-score, replicate 2 = -0.1.
Silencing of Efr resulted in: z-score, replicate 1 = -0.2; z-score, replicate 2 = 0.1.
With knock-down of CG12155 the results were z-score, replicate 1 = 0.2; z-score, replicate 2 = 0.3.
With knock-down of CG14456, the screen gave z-score, replicate 1 = -0.3; z-score, replicate 2 = 0.2.
Silencing of KCNQ #1 gave: z-score, replicate 1 = 0.1; z-score, replicate 2 = 0.4.
Depletion of KCNQ #2 resulted in: z-score, replicate 1 = -0.4; z-score, replicate 2 = -0.1.
With knock-down of Raf, the record shows z-score, replicate 1 = -0.2; z-score, replicate 2 = 0.8.

A run of entries taken from the entries so far, as a working copy:
CG17294 → z-score, replicate 1 = -0.1; z-score, replicate 2 = 0
CG1690 → z-score, replicate 1 = 0.1; z-score, replicate 2 = 0.1
CG14739 → z-score, replicate 1 = -0.2; z-score, replicate 2 = 0
Ir10a #1 → z-score, replicate 1 = -0.5; z-score, replicate 2 = -0.2

Additional entries follow.
For NimC2 the deposit lists z-score, replicate 1 = -0.1; z-score, replicate 2 = -0.5.
Oga gave z-score, replicate 1 = -0.1; z-score, replicate 2 = -0.5.
Silencing of CG33258 came out at: z-score, replicate 1 = -0.1; z-score, replicate 2 = 0.
For CG12868, the values are z-score, replicate 1 = -0.2; z-score, replicate 2 = 0.1.
Mad1 showed z-score, replicate 1 = -0.4; z-score, replicate 2 = -0.5.
With knock-down of mthl9, the record shows z-score, replicate 1 = -0.3; z-score, replicate 2 = -0.4.
After knock-down of P5CDh1, the record shows z-score, replicate 1 = -0.1; z-score, replicate 2 = -0.2.
After knock-down of Tdc1 the results were z-score, replicate 1 = -0.2; z-score, replicate 2 = -0.3.
CG15922 scored z-score, replicate 1 = 0.6; z-score, replicate 2 = -0.4.
After knock-down of Twdlbeta, the record shows z-score, replicate 1 = -0.4; z-score, replicate 2 = -0.5.
With knock-down of CG6067, the record shows z-score, replicate 1 = -0.3; z-score, replicate 2 = -0.2.
After knock-down of CG43102 #1, the screen gave z-score, replicate 1 = -1.2; z-score, replicate 2 = 0.2.
Silencing of CG43102 #2 came out at: z-score, replicate 1 = 0.6; z-score, replicate 2 = 1.
Against CG32036, the values are z-score, replicate 1 = -0.3; z-score, replicate 2 = 0.
CG7794 gave z-score, replicate 1 = -1; z-score, replicate 2 = -0.2.
With knock-down of tgy the results were z-score, replicate 1 = -0.4; z-score, replicate 2 = -0.3.
LpR1 #1 gave z-score, replicate 1 = -0.4; z-score, replicate 2 = -0.3.
LpR1 #2 scored z-score, replicate 1 = -0.2; z-score, replicate 2 = -0.3.
LpR1 #3 gave z-score, replicate 1 = -0.4; z-score, replicate 2 = -0.6.
